In publication PMC3967948:
For at least one entry, the source does not settle the construct or the ends of the probe. Negatives hold for the conditions tested. At least one verdict rests on a figure or table, not on a statement of the authors.

system: MBP-Tbx3 (purified); assay: EMSA; conditions: recombinant protein; protein details: MBP

| Sequence | binding result |
| --- | --- |
| GGUGGUGGUGGUGGUGGU [poly-GGU] | binds |

same assay, conditions: recombinant protein; protein details: MBP; label: radiolabeled

| Sequence | binding result |
| --- | --- |
| AAAAAAAAAAAAAAAAAA [poly-A] | no binding |
| AAUAAUAAUAAUAAUAAU [poly-AAU] | no binding |
| ACACACACACACACACAC [poly-AC] | no binding |
| AGAGAGAGAGAGAGAGAG [poly-AG] | binds |
| AUAUAUAUAUAUAUAUAU [poly-AU] | no binding |
| CUCUCUCUCUCUCUCUCU [poly-CU] | no binding |
| GCCGCCGCCGCCGCCGCC [poly-GCC] | no binding |
| GCGCGCGCGCGCGCGCGC [poly-GC] | no binding |
| GUGUGUGUGUGUGUGUGU [poly-GU] | binds |
| GUUGUUGUUGUUGUUGUU [poly-GUU] | no binding |
| UUUUUUUUUUUUUUUUUU [poly-U] | no binding |
